Source: the RNAGym collection of RNA variant scans (doi:10.1126/science.aae0568)
Variants at the floor of the assay are shown more often than the library holds them.

B1: tRNA (parent)
chain: GUUCCGUUGGCGUAAUGGUAACGCGUCUCCCUCCUAAGGAGAAGACUGCGGGUUCGAGUCCCGUACGGAACG

Variants of: B1
Assay: yeast fitness relative to wild type (ratio to wild type); higher = fitter; tRNA-Arg(CCU), competitive growth, 37 C, YPD
Method in brief: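 Genotype frequency changes were the basis for Darwinian fitness relative to wild type. The frequencies came from 100-nucleotide paired-end sequencing of gene amplicons from the start population and each end population of pooled yeast strains with tRNA-Arg(CCU) gene variants at the native locus. Competition ran in YPD at 37°C for 24 hours in six replicates, genotypes needed ≥ 100 starting reads, and estimates < 0.5 were set to 0.5.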

Row | Variant | yeast fitness
1 | C31A A57C C60G | ≤ 0.5
2 | C31A C33U G39C | ≤ 0.5
3 | C31A C34A A40C C46G | ≤ 0.5
4 | C31A C34G A45U C66U | ≤ 0.5
5 | C31A C55G A65C G67A | ≤ 0.5
6 | C31A G50C | 0.566
7 | C31A G50U C62G | ≤ 0.5
8 | C31A G52C U64C | ≤ 0.5
9 | C31A G56C | ≤ 0.5
10 | C31G A37C G50A | ≤ 0.5
11 | C31G A43U C46G U59G G67U | ≤ 0.5
12 | C31G A43U C60A A70G | ≤ 0.5
13 | C31G A57C A65C | ≤ 0.5
14 | C31G A57G G63A | ≤ 0.5
15 | C31G A57U G67U | ≤ 0.5
16 | C31G C34G A43U G68C A69G | ≤ 0.5
17 | C31G C60U A69U | ≤ 0.5
18 | C31G G38A G63C G67C | ≤ 0.5
19 | C31G G41A G52C A65U G67C | ≤ 0.5
20 | C31G G44A G51C A65G | 0.537
21 | C31G U32A C46G C55A | ≤ 0.5
22 | C31G U35A C62G G67U | ≤ 0.5
23 | C31G U59C C62U G68U | ≤ 0.5
24 | C31U A36G C55G C62U | ≤ 0.5

Row | Variant | yeast fitness
25 | C31U A37U G50A A70U | ≤ 0.5
26 | C31U A45C U47C C61A C62U A65U A69C | ≤ 0.5
27 | C31U A45U G56C G63C G67C | ≤ 0.5
28 | C31U A57C U59G U64G | ≤ 0.5
29 | C31U C33G A65C | ≤ 0.5
30 | C31U C46A | 1.01
31 | C31U C46G G50A C61U | 0.649
32 | C31U C60G A70G | 0.675
33 | C31U C60U G67A A69U | ≤ 0.5
34 | C31U G41C | 0.796
35 | C31U G41U A57G A65G | ≤ 0.5
36 | C31U G48A G68U A70C | ≤ 0.5
37 | C31U G51A G52C C60A | ≤ 0.5
38 | C31U U35A G51C G68A | ≤ 0.5
39 | C31U U35C A37C U47G G63A A65G A70C | ≤ 0.5
40 | C31U U35C A37C U47G G63A A70C | ≤ 0.5
41 | C31U U35C U53A | ≤ 0.5
42 | C31U U47C | 0.934
43 | C31U U54A G56C | ≤ 0.5
44 | C31U U54C A69G A70G | ≤ 0.5
45 | U32A A37G C60A A70G | ≤ 0.5
46 | U32A C33G G52C G56A | ≤ 0.5
47 | U32A C34G C55G U59C C60U G67U | ≤ 0.5
48 | U32A C34U G58A | ≤ 0.5

Row | Variant | yeast fitness
49 | U32A C46U G52C A57U | ≤ 0.5
50 | U32A G41C A43C | ≤ 0.5
51 | U32A G41C A65U | ≤ 0.5
52 | U32C A40U G56C A65C | ≤ 0.5
53 | U32C A43C U47A | ≤ 0.5
54 | U32C C33U C62U A65G A70U | ≤ 0.5
55 | U32C C34U A45U | 0.662
56 | U32C C55U A69C | 0.63
57 | U32C G58A C66A | ≤ 0.5
58 | U32G A36U U59C | ≤ 0.5
59 | U32G A42G A45C G56A C66U | ≤ 0.5
60 | U32G A45G C49U A70U | ≤ 0.5
61 | U32G A69C | 0.848
62 | U32G C33G A36G A70U | ≤ 0.5
63 | U32G C46G | 0.757
64 | U32G G39C G52C A65C | ≤ 0.5
65 | U32G G56A G63C | ≤ 0.5
66 | U32G G67C | 0.59
67 | U32G U35A G39A G44C C62U | ≤ 0.5
68 | C33A A36U C61U | ≤ 0.5
69 | C33A A42G C55G | ≤ 0.5
70 | C33A A43C A65U | ≤ 0.5
71 | C33A A43G A45C C60U C62A | ≤ 0.5
72 | C33A A57G G68C | ≤ 0.5

Row | Variant | yeast fitness
73 | C33A C34A U35C A36C G39C U47A U59C | ≤ 0.5
74 | C33A C61U C62G | ≤ 0.5
75 | C33A U35C | ≤ 0.5
76 | C33A U35C C46U C49U G51A G52C C61U C66U | ≤ 0.5
77 | C33A U35C C46U C49U G52C C61U C66U A69U | 0.528
78 | C33A U47A G56C | ≤ 0.5
79 | C33G A37G C66A | ≤ 0.5
80 | C33G A40G A42C | ≤ 0.5
81 | C33G A43G A45U C55U A65C | ≤ 0.5
82 | C33G A57U U59C | ≤ 0.5
83 | C33G C34U C66G | ≤ 0.5
84 | C33G C49G C55U | ≤ 0.5
85 | C33G C55A G58A | 0.609
86 | C33G C60A A70C | ≤ 0.5
87 | C33G C61A C62U | ≤ 0.5
88 | C33G C66G A70G | 0.54
89 | C33G G38A C61U G67A | ≤ 0.5
90 | C33G G41C C55U G56C G58A G63C A65U | ≤ 0.5
91 | C33G U47G G56A A57G A69U | ≤ 0.5
92 | C33G U53A C60U | 0.637
93 | C33G U54A U59A G67A | ≤ 0.5
94 | C33G U59A C61G | ≤ 0.5
95 | C33U A36C U64C | 0.648
96 | C33U A43C | 0.656

Row | Variant | yeast fitness
97 | C33U A43U C46G | ≤ 0.5
98 | C33U A57C C66G | ≤ 0.5
99 | C33U C34A U53G U54A C66A | ≤ 0.5
100 | C33U C34G A40G | 0.625
101 | C33U C34U C66A A70C | ≤ 0.5
102 | C33U C34U G58C G63A | ≤ 0.5
103 | C33U C55G | ≤ 0.5
104 | C33U C61G | ≤ 0.5
105 | C33U G41A C61U | ≤ 0.5
106 | C33U G44A C61U | 0.675
107 | C33U G48A C60U U64G A65U A69C | 0.571
108 | C33U G52C U53G U59G C61A | ≤ 0.5
109 | C33U G58A C61G A70U | ≤ 0.5
110 | C33U G63A A70G | ≤ 0.5
111 | C33U G63A C66U | ≤ 0.5
112 | C33U U59C A65C | ≤ 0.5
113 | C34A A36C C49U | ≤ 0.5
114 | C34A A36U A45U | ≤ 0.5
115 | C34A A37U G44A G51A C55A | 0.603
116 | C34A A40G C66A | ≤ 0.5
117 | C34A A40U U53A A69C | ≤ 0.5
118 | C34A A42G | 0.676
119 | C34A A42G C46U U54C | ≤ 0.5
120 | C34A C49A U59G C66U | ≤ 0.5

Row | Variant | yeast fitness
121 | C34A G41A U59G | ≤ 0.5
122 | C34A G50A | 0.742
123 | C34A G67C | 0.782
124 | C34A U53A U54G | ≤ 0.5
125 | C34A U54A G67A | ≤ 0.5
126 | C34G A37U G39A A57U | ≤ 0.5
127 | C34G A42U | 0.621
128 | C34G A43U A70C | ≤ 0.5
129 | C34G A43U G48C | ≤ 0.5
130 | C34G C49G C61U | ≤ 0.5
131 | C34G C49G U54C C61U A69G | ≤ 0.5
132 | C34G C55U | ≤ 0.5
133 | C34G G39C C49U A65C A69C | ≤ 0.5
134 | C34G G48A G63A | ≤ 0.5
135 | C34G G48C U59A | ≤ 0.5
136 | C34G G50C U53A A69C | ≤ 0.5
137 | C34G G52A C62U | 0.6
138 | C34G U47A C62A | ≤ 0.5
139 | C34U A36G G50A G56C | ≤ 0.5
140 | C34U A37G A40U | ≤ 0.5
141 | C34U A40C A43G | 0.513
142 | C34U A40G C46A G51A | ≤ 0.5
143 | C34U C46G G63A A65C | ≤ 0.5
144 | C34U C61A | 0.563

Row | Variant | yeast fitness
145 | C34U G50C A69U | ≤ 0.5
146 | C34U G51C | ≤ 0.5
147 | C34U G52C | ≤ 0.5
148 | C34U U47G C60U C62G | ≤ 0.5
149 | U35A A37U C66U | ≤ 0.5
150 | U35A A43C G51C C62A A70U | ≤ 0.5
151 | U35A A43G C66U | ≤ 0.5
152 | U35A C60G G63A | 0.503
153 | U35A G41A C66G | ≤ 0.5
154 | U35A U47G | ≤ 0.5
155 | U35C A42U G67A | ≤ 0.5
156 | U35C A45C C49G | 0.562
157 | U35C C55A C61U A69U | ≤ 0.5
158 | U35C C60U G68U | ≤ 0.5
159 | U35C G56A U59C A65C A70G | ≤ 0.5
160 | U35C G67A G68U | ≤ 0.5
161 | U35G | 0.676
162 | U35G A37G | ≤ 0.5
163 | U35G A57G A65U | ≤ 0.5
164 | U35G C49A | 0.595
165 | U35G C60A | ≤ 0.5
166 | U35G G44A U59C | ≤ 0.5
167 | U35G G63A | 0.7
